Article PMC12156041, “Design, Synthesis and Antiplasmodial Activities of a Library of Fluorine-Based 3-Benzylmenadiones” (Molecules, 2025)

Tested on: P. berghei (GFP ANKA malaria strain)
Test: In vitro efficacy testing with P. berghei, 24 h (species shift assay)
Format: cell-based
Details: 24 h assays

Compound | Species Shift Pf versus Pb
CC1=C(Cc2ccc(F)c(C(F)(F)F)c2)C(=O)c2ccccc2C1=O [A-b-9, 4′-fluoro-3′-trifluoromethyl-benzylmenadione] | 1.0
CC1=C(Cc2c(F)c(F)c(F)c(F)c2F)C(=O)c2ccccc2C1=O [A-b-47] | 1.4
CCN(CC)CCCC(C)Nc1ccnc2cc(Cl)ccc12 (centres unmarked) [CQ, reference compound] | 3.3
CC1=C(Cc2ccc(C(F)(F)F)cc2)C(=O)c2cc(F)ccc2C1=O [Cpnd 6-F-PD] | 1.6
CC1=C(Cc2ccc(C(F)(F)F)cc2)C(=O)c2ccc(F)cc2C1=O [Cpnd 7-F-PD] | 0.9

No dose or concentration is given here for some results.
